Data from US20260256755A1, “COMBINATIONS FOR TREATMENT OF PARKINSON'S DISEASE AND OTHER PRIMARY AND SECONDARY PARKINSONIAN DISORDERS” (Kenai Therapeutics, Inc., priority 2023, published 2026).
At least one compound was matched to its structure with a doubt left.

Columns and labels:
cerebral cortex = test: Example 5: cortical lesion study, neuroprotection and inflammation; type: in vivo, long evans hooded rats; conditions: injected with DA neural cells
DA neural cells = test: Example 2: stress test, medium change followed by serum deprivation; type: cell-based; conditions: concentrations of 0.1 and 0.01 μM
Excerpt: DA neural cell survival will be measured by either counting surviving attached DA neural cells or by colorimetric determination after applying an electrocoupling reagent that responds to chemical reactions in normal cellular respiration.

PGC-1a = test: upregulation of PGC-1a, mode of action relevant to dopaminergic cells; type: cell-based; conditions: mode of action relevant to dopaminergic cells and Parkinson's disease

SMILES | accumulation of inflammatory cells in the parenchyma (cerebral cortex) | rescue of DA neural cells (DA neural cells) | activity (active or not) (PGC-1a)
CC(C)OC(=O)C(C)(C)Oc1ccc(C(=O)c2ccc(Cl)cc2)cc1 [fenofibrate] | inhibited | rescue DA neural cells | –
CC(C)(Oc1ccc(C(=O)c2ccc(Cl)cc2)cc1)C(=O)O [fenofibric acid] | – | – | not its primary metabolite fenofibric acid are active
